Assay results as given in US20180118756A1, “COMPOSITIONS AND METHODS OF MODULATING SHORT-CHAIN DEHYDROGENASE ACTIVITY” (CASE WESTERN RESERVE UNIVERSITY, priority 2015, published 2018).
Some of these results come from one statement about several compounds together.

Target: T1, recombinant 15-PGDH (Homo sapiens, UniProt P15428)
T1 sequence (P15428 1-266): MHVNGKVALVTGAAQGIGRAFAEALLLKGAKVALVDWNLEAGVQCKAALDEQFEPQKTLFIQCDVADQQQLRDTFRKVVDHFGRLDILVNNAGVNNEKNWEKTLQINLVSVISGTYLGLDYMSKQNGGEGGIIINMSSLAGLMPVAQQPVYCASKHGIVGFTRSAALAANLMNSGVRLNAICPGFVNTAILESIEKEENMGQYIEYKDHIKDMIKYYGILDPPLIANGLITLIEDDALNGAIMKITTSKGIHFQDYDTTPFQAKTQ
Test: IC50 for inhibiting enzymatic activity of recombinant 15-PGDH in an in vitro assay
Assay type: biochemical
Settings: racemate versus separated enantiomers

SMILES: CCCC[S+]([O-])c1sc2nc(-c3nccs3)nc(-c3ccccc3)c2c1N (stereo not shown) [SW 208436]
- share of 15-PGDH inhibitory activity due to the (+) optical isomer: at least 98%
